The list is a part of this screen's results and no random one: it gathers tests that were run many times, whatever their T/C, doses with no T/C, and many T/C values between a quarter and a half above the control. Further doses and runs are listed elsewhere. T/C: endpoint of the treated group in % of that of the vehicle group. Some doses have a count of surviving animals in place of a T/C: the source files T/C as zero there, which appears to mark a toxic dose or a test without result, not a measured value. Some survivor counts are full or nearly so, which does not show that the dose was tolerated: the source hardly ever lists a survival T/C far under the control, and the zero likely stands for such cases as well. Survivors were counted at the toxicity check, usually on the fifth day, unless a day is given; later deaths do not show. Schedule codes are those of the source, taken here to give the interval after Q, in days (D) or hours (H), and the number of doses after X. Some schedules carry Z or #; the key to these is not given. Where survival is the endpoint, this PubChem deposit counts one and a half times the control or more as active, and values a quarter to a half above the control carry no call in these data; other NCI protocols may use other cut-offs. Some T/C values carry the count of animals alive at the toxicity check (mostly the fifth day); without a count, all were alive then. Some entries hold several experiments; their values stand side by side, smallest first.
Tested on: L1210 leukemia ip in BDF1 mice, survival T/C
Assay: NCI In Vivo Anticancer Drug Screen. Data for tumor model L1210 Leukemia (intraperitoneal) in B6D2F1 (BDF1) mice
Details: T/C endpoint: mean survival time, higher T/C = longer survival; for T/C: vehicle: water
[1] = dose: 200.0 mg/kg/injection, schedule: Q04DX003 (ip), vehicle: saline with Tween-80
[2] = dose: 400.0 mg/kg/injection, schedule: Q04DX003 (ip), vehicle: saline with Tween-80
[3] = dose: 400.0 mg/kg/injection, schedule: Q01DX001 (ip), vehicle: saline
[4] = dose: 400.0 mg/kg/injection, schedule: Q01DX001 (ip), vehicle: carboxymethylcellulose (CMC)
[5] = dose: 300.0 mg/kg/injection, schedule: Q01DX001 (ip), vehicle: saline

## CCCCCCCCCCC(=O)N1CCOCC1
dose: 100.0 mg/kg/injection, schedule: Q04DX003 (ip), vehicle: saline with Tween-80
  survivor count: 6 of 6
[1]
  survivor count: 6 of 6
[2]
  survivor count: 0 of 6

## O=C(Nc1ccc(C2=NCCN2)cc1)c1ccc(CNc2ccc(C3=NCCN3)cc2)cc1
dose: 37.0 mg/kg/injection, schedule: Q01DX Z (ip)
  T/C: 145 % of control

## CS(=O)(=O)OC12CC3CC(CC(C3)C1)C2
[3]
  survivor count: 3 of 6

## O=c1oc(-c2ccccc2)nc2cc(Cl)ccc12
[1]
  survivor count: 3 of 6
[2]
  survivor count: 0 of 6

## Cc1cccc2cc3c(ccc4ccccc43)c[n+]12
dose: 16.0 mg/kg/injection, schedule: Q01DX015 (ip), vehicle: carboxymethylcellulose (CMC)
  survivor count: 0 of 6
dose: 25.0 mg/kg/injection, schedule: Q01DX009 (ip), vehicle: saline with Tween-80
  survivor count: 5 of 6
dose: 50.0 mg/kg/injection, schedule: Q01DX001 (ip), vehicle: saline
  survivor count: 0 of 6
dose: 70.0 mg/kg/injection, schedule: Q04DX003 (ip), vehicle: saline
  survivor count: 0 of 6
dose: 100.0 mg/kg/injection, schedule: Q01DX001 (ip), vehicle: saline
  survivor count: 0 of 6
dose: 110.0 mg/kg/injection, schedule: Q04DX003 (ip), vehicle: saline
  survivor count: 0 of 6
dose: 160.0 mg/kg/injection, schedule: Q04DX003 (ip), vehicle: saline
  survivor count: 0 of 6
dose: 200.0 mg/kg/injection, schedule: Q01DX001 (ip), vehicle: saline
  survivor count: 0 of 6
[3]
  survivor count: 0 of 6

## OC1C(OCc2ccccc2)OC(COCc2ccccc2)C(OC2OC(COCc3ccccc3)C(OCc3ccccc3)C(OCc3ccccc3)C2OCc2ccccc2)C1OCc1ccccc1 (configuration not stated)
dose: 100.0 mg/kg/injection, schedule: Q01DX001 (ip), vehicle: other
  survivor count: 6 of 6
dose: 100.0 mg/kg/injection, schedule: Q01DX009 (ip), vehicle: alcohol
  survivor count: 6 of 6
dose: 200.0 mg/kg/injection, schedule: Q01DX001 (ip), vehicle: other
  survivor count: 6 of 6
dose: 400.0 mg/kg/injection, schedule: Q01DX001 (ip), vehicle: other
  survivor count: 4 of 6

## CC(=O)NNC(=O)c1ccncc1
dose: 400.0 mg/kg/injection, schedule: Q01DX009 (ip)
  T/C: 131 and 132 % of control [5 of 6 alive]

## Nn1nnc(-c2ccccc2)c1-c1ccccc1
[4]
  survivor count: 4 of 4

## C[P+]1(c2ccccc2)CCC(N)=C(C#N)C1 (configuration not stated)
dose: 200.0 mg/kg/injection, schedule: Q04DX002 (ip), vehicle: saline with Tween-80
  survivor count: 0 of 3
dose: 400.0 mg/kg/injection, schedule: Q04DX002 (ip), vehicle: saline with Tween-80
  survivor count: 0 of 3

## c1ccc2c(c1)OCC(CNC1CCCCC1)O2 (configuration not stated)
dose: 50.0 mg/kg/injection, schedule: Q04DX003 (ip), vehicle: saline with Tween-80
  survivor count: 6 of 6
[1]
  survivor count: 5 of 6
[2]
  survivor count: 1 of 6

## C[Si](C)(CCN1CC1)N1CC1
dose: 100.0 mg/kg/injection, schedule: Q01DX001 (ip), vehicle: carboxymethylcellulose (CMC)
  survivor count: 0 of 4
dose: 200.0 mg/kg/injection, schedule: Q01DX001 (ip), vehicle: carboxymethylcellulose (CMC)
  survivor count: 0 of 4
[4]
  survivor count: 0 of 4

## O=C1CCC2C3CCC(=O)C3C12 (configuration not stated)
[5]
  survivor count: 0 of 6

## CN(C)C1CCCC/C=C\C(=O)NC1 (configuration not stated)
dose: 150.0 mg/kg/injection, schedule: Q01DX001 (ip), vehicle: saline
  survivor count: 2 of 6
[5]
  survivor count: 0 of 6

## CCCCC(=O)N1CCCCC1
dose: 400.0 mg/kg/injection, schedule: Q04DX002 (ip), vehicle: carboxymethylcellulose (CMC)
  survivor count: 0 of 3

## C/C=C(\C)C#N
dose: 50.0 mg/kg/injection, schedule: Q01DX Z (ip), vehicle: saline
  survivor count: 0 of 6

## COc1ccc(CC(=O)OOC(C)(C)C)cc1
[2]
  survivor count: 3 of 3

## CC(CN(C)C)C(O)(c1ccccc1)c1ccccc1 (configuration not stated)
[3]
  survivor count: 1 of 4
